From patent US10674732B2, “Anti-phytopathogenic compositions” (The State of Israel, Ministry Of Agriculture & Rural …, priority 2015, dated 2020)
At least one compound was matched to its structure with a doubt left.

Tested on: DLB
Assay: DLB antibiotic susceptibility test
Assay type: cell-based, Dyella-like bacterium

With C[C@@H](O)[C@H]1C(=O)N2C(C(=O)O)=C(SCCN=CN)C[C@H]12 [imipenem] the “resistance of the bacterium to the antibiotic” value was “resistant”.
